Data taken from PMC8373263.
No constants are given. Whether binding was seen depends on the method and setting. Where a sequence is shown, tags or fusion partners need not be part of it.

Chains of the proteins cited; added tags and fusions are not shown.
UniProt P70288: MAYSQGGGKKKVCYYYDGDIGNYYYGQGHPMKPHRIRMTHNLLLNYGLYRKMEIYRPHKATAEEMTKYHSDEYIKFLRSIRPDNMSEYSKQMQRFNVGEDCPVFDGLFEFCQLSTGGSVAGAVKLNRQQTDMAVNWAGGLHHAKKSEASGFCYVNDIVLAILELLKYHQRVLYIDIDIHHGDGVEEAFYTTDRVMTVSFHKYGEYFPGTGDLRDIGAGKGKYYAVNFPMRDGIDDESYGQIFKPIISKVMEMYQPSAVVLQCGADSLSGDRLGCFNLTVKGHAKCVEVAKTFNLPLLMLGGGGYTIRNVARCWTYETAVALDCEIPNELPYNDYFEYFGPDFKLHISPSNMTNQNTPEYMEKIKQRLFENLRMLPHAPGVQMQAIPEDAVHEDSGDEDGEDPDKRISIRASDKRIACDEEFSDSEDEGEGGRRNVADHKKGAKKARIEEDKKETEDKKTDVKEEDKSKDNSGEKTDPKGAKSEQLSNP

Molecular target: T1, GST-APPL1 (full-length APPL1) (mouse) (UniProt Q8K3H0)
T1 sequence: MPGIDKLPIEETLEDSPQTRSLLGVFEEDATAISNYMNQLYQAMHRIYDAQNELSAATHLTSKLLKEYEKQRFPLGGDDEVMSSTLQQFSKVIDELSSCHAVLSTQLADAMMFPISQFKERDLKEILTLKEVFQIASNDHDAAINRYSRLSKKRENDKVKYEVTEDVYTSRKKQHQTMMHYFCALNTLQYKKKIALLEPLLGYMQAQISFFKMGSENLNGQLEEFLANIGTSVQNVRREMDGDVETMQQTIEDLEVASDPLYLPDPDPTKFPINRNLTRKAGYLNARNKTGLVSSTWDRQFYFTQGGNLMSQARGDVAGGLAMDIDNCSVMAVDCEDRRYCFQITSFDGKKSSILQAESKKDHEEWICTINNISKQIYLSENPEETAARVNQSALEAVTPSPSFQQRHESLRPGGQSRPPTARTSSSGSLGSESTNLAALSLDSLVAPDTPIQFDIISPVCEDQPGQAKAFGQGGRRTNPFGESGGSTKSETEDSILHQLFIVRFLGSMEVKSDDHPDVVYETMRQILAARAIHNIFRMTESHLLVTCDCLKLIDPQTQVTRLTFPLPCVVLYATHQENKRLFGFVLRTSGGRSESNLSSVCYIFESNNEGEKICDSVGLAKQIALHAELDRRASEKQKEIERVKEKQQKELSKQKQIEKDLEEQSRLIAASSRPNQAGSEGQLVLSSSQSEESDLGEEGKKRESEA
Assay: pull-down; GST-APPL1 and HDAC2 (Supplementary Figure S4); by the methods' binding assay: 10 μg purified GST-tagged protein with about the same amount of His-tagged recombinant protein in lysis buffer, GST beads, His antibody; both purified

- binding: no binding
Substance: HDAC2 (tested against GST-APPL1, Supplementary Figure S4) (from UniProt P70288 1-488) (enzyme)
